Reference: US20090018111A1, “Novel Antimicrobial Medicament” (priority 2004, published 2009)
Some of these results come from one statement about several compounds together.

Tested on: 18 bacteria (27 standard strains)
Assay: Sensitivity test, combination effect over the standard strains
Format: cell-based
Settings: combined with compound 1, against many strains
Protocol: The antibacterial activities were tested against various 18 bacteria (27 standard strains) which are representative bacteria caused clinically infectious disease (Staphylococcus aureus 3 strains, Staphylococcus epidermidis 1 strain, Micrococcus luteus 1 strain, Streptococcus pyogenes 1 strain, Enterococcus faecalis 1 strain, Enterococcus faecium 1 strain, Bacillus subtilis 1 strain, Escherichia coli 3 strains, Klebsiella pneumoniae 1 strain, Proteus mirabilis 1 strain, Proteus vulgaris 2 strains, Pseudomonas aeruginosa 3 strains, Serratia marcescens 2 strains, Enterobacter aerogenes 1 strain, Stenotrophomonas maltophilia 1 strain, Enterobacter cloacae 1 strain, Citrobacter freundii 1 strain, Moraxella catarrhalis 2 strains).
According to the standard method of Japan Chemotherapeutic Society (Chemotherapy, vol. […], p 76-79 (1981)) the test was carried out using the agar dilution method. After dissolving test samples in distilled water, agar medium containing the test samples was prepared in such a manner that the final concentration became twice serial dilution by pouring serially diluted combination drug solution or a single drug solution into agar medium. As agar medium was used Mueller Hinton Agar medium (MHA). Then, each strain was cultivated over night at 37° C. in an incubator and suspended in buffered saline solution with gelatin (BSG) in the concentration of about 10^6 CFU/ml. The suspension (about 5 μl) containing test strains was inoculated to the medium containing the test samples by Micro Planter.
When the sample is subjected to sensitivity test, this mixed solution was diluted by twice serial dilution method.
FIC index based on MIC value was calculated. […] Namely, when FIC index calculated by the following formula is equal or less than 1, the enhanced effect of the combination drug in said ratio is considered as positive. […]
Formula of FIC index: FIC index=(MIC of Drug A in combination/MIC of Drug A alone)+(MIC of Drug B in combination/MIC of Drug B alone) N.C. in tables means being not calculated.

| SMILES | FIC index |
| --- | --- |
| C[C@@H](O)[C@H]1C(=O)N2C(C(=O)[O-])=C(SC3Cn4cnc[n+]4C3)[C@H](C)[C@H]12 (stereo partly drawn) [BIPM, biapenem] | ≤ 1 |
| C[C@@H](O)[C@H]1C(=O)N2C(C(=O)O)=C(S[C@@H]3CN[C@H](CNS(N)(=O)=O)C3)[C@H](C)[C@H]12 [DRPM, doripenem] | ≤ 1 |
| CC(=N)N1CC[C@H](SC2=C(C(=O)O)N3C(=O)[C@H]([C@@H](C)O)[C@H]3C2)C1 [PAPM, panipenem] | ≤ 1 |
